# Results: paper PMC10711656, “RZZ‐Spindly and CENP‐E form an integrated platform to recruit dynein to the kinetochore corona” (The EMBO Journal, 2023)
# The chains behind the UniProt entries cited, without tags or fusion partners. Residues count along the entry.
# UniProt O60566, residues 766-1050: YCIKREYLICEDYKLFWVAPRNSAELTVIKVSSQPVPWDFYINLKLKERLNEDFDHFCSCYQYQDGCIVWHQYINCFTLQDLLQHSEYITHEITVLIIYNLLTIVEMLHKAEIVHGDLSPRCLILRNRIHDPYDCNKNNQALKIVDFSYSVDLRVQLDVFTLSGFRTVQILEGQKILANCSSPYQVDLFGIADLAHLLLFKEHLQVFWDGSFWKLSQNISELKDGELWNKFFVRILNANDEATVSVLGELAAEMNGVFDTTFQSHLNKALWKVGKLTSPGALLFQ
# These are yes or no findings as the source states them, for the method shown. Some binding calls cover weakened binding; strength is not graded here.
# B1: EGFP‐CENP‐E^2366C (domain or fragment, human, UniProt Q02224 2366-2701, looked up)
# chain: NKNPHVTSRATQLTTEKIRELENSLHEAKESAMHKESKIIKMQKELEVTNDIIAKLQAKVHESNKCLEKTKETIQVLQDKVALGAKPYKEEIEDLKMKLVKIDLEKMKNAKEFEKEISATKATVEYQKEVIRLLRENLRRSQQAQDTSVISEHTDPQPSNKPLTCGGGSGIVQNTKALILKSEHIRLEKEISKLKQQNEQLIKQKNELLSNNQHLSNEVKTWKERTLKREAHKQVTCENSPKSPKVTGTASKKKQITPSQCKERNLQDPVPKESPKSCFFDSRSKSLPSPHPVRYFDNSSLGLCPEVQNAGAESVDSQPGPWHASSGKDVPECKTQ
# notes: source: E. coli BL21 (DE3) RP plus, purified (HisTrap FF, Superose 6); not shown: EGFP, N-terminal, kept
# B2: mCherry‐Spindly (protein, UniProt Q96EA4 1-605)
# chain: MEADIITNLRCRLKEAEEERLKAAQYGLQLVESQNELQNQLDKCRNEMMTMTESYEQEKYTLQREVELKSRMLESLSCECEAIKQQQKMHLEKLEEQLSRSHGQEVNELKTKIEKLKVELDEARLSEKQLKHQVDHQKELLSCKSEELRVMSERVQESMSSEMLALQIELTEMESMKTTLKEEVNELQYRQEQLELLITNLMRQVDRLKEEKEEREKEAVSYYNALEKARVANQDLQVQLDQALQQALDPNSKGNSLFAEVEDRRAAMERQLISMKVKYQSLKKQNVFNREQMQRMKLQIATLLQMKGSQTEFEQQERLLAMLEQKNGEIKHLLGEIRNLEKFKNLYDSMESKPSVDSGTLEDNTYYTDLLQMKLDNLNKEIESTKGELSIQRMKALFESQRALDIERKLFANERCLQLSESENMKLRAKLDELKLKYEPEETVEVPVLKKRREVLPVDITTAKDACVNNSALGGEVYRLPPQKEETQSCPNSLEDNNLQLEKSVSIYTPVVSLSPHKNLPVDMQLKKEKKCVKLIGVPADAEALSERSGNTPNSPRLAAESKLQTEVKEGKETSSKLEKETCKKLHPILYVSSKSTPETQCPQQ
# B3: EGFP‐CENP‐E^2070C (domain or fragment, human, UniProt Q02224 2070-2701, looked up)
# chain: RQNHQVKPEKRLLSDGQQHLTESLREKCSRIKELLKRYSEMDDHYECLNRLSLDLEKEIEFQKELSMRVKANLSLPYLQTKHIEKLFTANQRCSMEFHRIMKKLKYVLSYVTKIKEEQHESINKFEMDFIDEVEKQKELLIKIQHLQQDCDVPSRELRDLKLNQNMDLHIEEILKDFSESEFPSIKTEFQQVLSNRKEMTQFLEEWLNTRFDIEKLKNGIQKENDRICQVNNFFNNRIIAIMNESTEFEERSATISKEWEQDLKSLKEKNEKLFKNYQTLKTSLASGAQVNPTTQDNKNPHVTSRATQLTTEKIRELENSLHEAKESAMHKESKIIKMQKELEVTNDIIAKLQAKVHESNKCLEKTKETIQVLQDKVALGAKPYKEEIEDLKMKLVKIDLEKMKNAKEFEKEISATKATVEYQKEVIRLLRENLRRSQQAQDTSVISEHTDPQPSNKPLTCGGGSGIVQNTKALILKSEHIRLEKEISKLKQQNEQLIKQKNELLSNNQHLSNEVKTWKERTLKREAHKQVTCENSPKSPKVTGTASKKKQITPSQCKERNLQDPVPKESPKSCFFDSRSKSLPSPHPVRYFDNSSLGLCPEVQNAGAESVDSQPGPWHASSGKDVPECKTQ
# notes: codon-optimised cDNA; The His6-EGFP tag is PreScission-cleavable, but no cleavage step is described; source: insect cells (biGBac; baculovirus from Sf9, expression in Tnao38), purified (HisTrap, Superdex 200); not shown: EGFP, N-terminal, kept
# Assays:
# [1] = target: BUBR1 kinase domain (UniProt O60566); test: SEC; analytical SEC; 16 μM CENP-E proteins mixed with 8 μM BUBR1^KD in 30 μl; Superose 6 5/150 or Superdex 200 5/150; 50 mM HEPES pH 8.0, 100 mM NaCl, 5% glycerol, 0.5 mM TCEP; 4°C; fractions by SDS-PAGE; both purified
# [2] = target: EGFP‐CENP‐E^2070C (human) (UniProt Q02224); test: SEC; analytical SEC; Superdex 200 15/50; 50 mM HEPES pH 8.0, 150 mM NaCl, 2 mM TCEP; 4°C; mixed in 60 μl and kept at least 1 h on ice; PE 3 μM or CENP-E^2070C 20 μM with Spindly constructs 16 μM; both purified
molecule,measurement,setting,value
EGFP‐CENP‐E^2070–2365 (from UniProt Q02224 2070-2365) (domain or fragment),binding,[1],binds
B1,binding,[1],"no binding (tested: 16 μM CENP-E, 8 μM BUBR1^KD)"
B2,binding,[2],"no binding (tested: CENP‐E: 20 μM, Spindly constructs: 16 μM)"
B3,binding,[1],binds
